We go through one compound from patent US10786451B2, “Process for preparing a dry powder formulation comprising an anticholinergic, a corticosteroid and a beta-adrenergic” (CHIESI FARMACEUTICI S.P.A., priority 2015, dated 2020).

The data set is described as follows: Uniformity of distribution of the active ingredients in the blend (12 samples, HPLC). The class given is physicochemical. On the procedure:
In the context of the present application the flow properties were tested by measuring the flow rate through an orifice according to the method described in the European Pharmacopeia (Eur. Ph.) 8.6, 8th Edition, which is incorporated herein by reference in its entirety. […] It is usually determined according to known methods, for instance by taking samples from different parts of the powder and testing the component by HPLC or other equivalent analytical methods. The uniformity of distribution of the active ingredients was evaluated by withdrawing 12 samples from different parts of the blend and evaluated by HPLC.

Turning to `C[N+]1(C)CCC(OC(=O)C(O)(c2ccccc2)C2CCCC2)C1` (centres unmarked) [GB, Glycopyrronium bromide], the Uniformity of distribution (powder formulation of Example 2 (6 μg FF, 100 μg BDP, 12.5 μg GB per 10 mg carrier), mean value, RSD in next column) came to 100.8 and the Uniformity of distribution (powder formulation of Example 3 (6 μg FF, 100 μg BDP, 25 μg GB per 10 mg carrier)) was 101.5.
